Results published in the supplement of paper PMC10849652.
Some of the results follow.

The chains behind the UniProt entries cited, without tags or fusion partners. Where a name states a change or a piece, a line headed by the entry shows the natural chain unless it says otherwise.
UniProt Q15750: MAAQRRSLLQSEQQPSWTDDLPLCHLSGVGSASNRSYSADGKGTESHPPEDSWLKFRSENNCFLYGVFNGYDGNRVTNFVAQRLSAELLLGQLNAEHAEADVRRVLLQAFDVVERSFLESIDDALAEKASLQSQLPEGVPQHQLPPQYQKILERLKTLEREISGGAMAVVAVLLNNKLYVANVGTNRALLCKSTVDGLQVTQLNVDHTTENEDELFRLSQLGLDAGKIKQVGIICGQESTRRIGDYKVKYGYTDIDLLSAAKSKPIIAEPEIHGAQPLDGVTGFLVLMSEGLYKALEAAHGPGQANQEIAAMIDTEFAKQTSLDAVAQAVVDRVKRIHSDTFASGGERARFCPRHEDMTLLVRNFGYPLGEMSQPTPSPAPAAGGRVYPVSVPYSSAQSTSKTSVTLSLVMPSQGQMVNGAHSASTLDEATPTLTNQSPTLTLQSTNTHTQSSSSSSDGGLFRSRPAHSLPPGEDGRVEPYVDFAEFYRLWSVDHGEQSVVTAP
UniProt Q9Y5B9, whole entry, looked up: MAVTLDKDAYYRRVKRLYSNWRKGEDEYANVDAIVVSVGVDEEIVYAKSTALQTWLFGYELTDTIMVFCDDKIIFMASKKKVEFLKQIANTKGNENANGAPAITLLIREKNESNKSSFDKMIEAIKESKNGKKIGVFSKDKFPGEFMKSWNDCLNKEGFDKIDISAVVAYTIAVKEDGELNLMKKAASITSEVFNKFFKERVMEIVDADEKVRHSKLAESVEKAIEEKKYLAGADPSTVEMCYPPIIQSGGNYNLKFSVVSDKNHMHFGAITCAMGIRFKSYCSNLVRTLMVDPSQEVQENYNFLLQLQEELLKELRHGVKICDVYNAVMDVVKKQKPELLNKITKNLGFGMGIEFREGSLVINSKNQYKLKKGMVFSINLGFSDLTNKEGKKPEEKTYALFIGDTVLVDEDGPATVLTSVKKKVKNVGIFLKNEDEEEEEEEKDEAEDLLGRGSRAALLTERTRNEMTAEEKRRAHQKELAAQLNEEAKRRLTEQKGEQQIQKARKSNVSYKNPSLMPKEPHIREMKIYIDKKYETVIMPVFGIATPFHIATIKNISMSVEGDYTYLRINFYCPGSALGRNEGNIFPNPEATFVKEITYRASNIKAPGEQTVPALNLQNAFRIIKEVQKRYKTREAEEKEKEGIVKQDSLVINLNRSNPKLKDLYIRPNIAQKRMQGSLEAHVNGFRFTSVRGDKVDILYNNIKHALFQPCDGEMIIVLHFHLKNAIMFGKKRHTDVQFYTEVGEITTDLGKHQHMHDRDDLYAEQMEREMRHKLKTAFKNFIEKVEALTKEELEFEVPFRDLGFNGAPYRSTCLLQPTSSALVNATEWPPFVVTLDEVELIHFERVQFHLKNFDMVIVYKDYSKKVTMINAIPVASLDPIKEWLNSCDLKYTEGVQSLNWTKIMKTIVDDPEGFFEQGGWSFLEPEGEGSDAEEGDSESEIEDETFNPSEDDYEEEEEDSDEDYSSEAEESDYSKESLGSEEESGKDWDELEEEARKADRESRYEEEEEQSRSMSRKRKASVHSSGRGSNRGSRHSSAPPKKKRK
UniProt Q9H169: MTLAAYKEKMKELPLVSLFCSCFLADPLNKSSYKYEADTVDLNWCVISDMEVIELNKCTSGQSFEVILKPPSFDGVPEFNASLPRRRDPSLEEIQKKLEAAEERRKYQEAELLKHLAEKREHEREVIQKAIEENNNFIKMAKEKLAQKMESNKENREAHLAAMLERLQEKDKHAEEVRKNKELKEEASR
UniProt P53597: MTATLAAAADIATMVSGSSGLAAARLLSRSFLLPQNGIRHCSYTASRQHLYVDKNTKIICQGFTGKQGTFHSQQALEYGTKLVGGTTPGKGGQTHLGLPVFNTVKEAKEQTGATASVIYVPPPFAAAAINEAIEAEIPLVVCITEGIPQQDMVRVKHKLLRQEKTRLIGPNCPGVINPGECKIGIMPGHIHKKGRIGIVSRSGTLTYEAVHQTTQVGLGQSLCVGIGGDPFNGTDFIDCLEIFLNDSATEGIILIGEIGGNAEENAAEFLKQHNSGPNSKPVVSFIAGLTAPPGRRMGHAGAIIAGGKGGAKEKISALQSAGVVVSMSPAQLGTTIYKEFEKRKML
UniProt P51687: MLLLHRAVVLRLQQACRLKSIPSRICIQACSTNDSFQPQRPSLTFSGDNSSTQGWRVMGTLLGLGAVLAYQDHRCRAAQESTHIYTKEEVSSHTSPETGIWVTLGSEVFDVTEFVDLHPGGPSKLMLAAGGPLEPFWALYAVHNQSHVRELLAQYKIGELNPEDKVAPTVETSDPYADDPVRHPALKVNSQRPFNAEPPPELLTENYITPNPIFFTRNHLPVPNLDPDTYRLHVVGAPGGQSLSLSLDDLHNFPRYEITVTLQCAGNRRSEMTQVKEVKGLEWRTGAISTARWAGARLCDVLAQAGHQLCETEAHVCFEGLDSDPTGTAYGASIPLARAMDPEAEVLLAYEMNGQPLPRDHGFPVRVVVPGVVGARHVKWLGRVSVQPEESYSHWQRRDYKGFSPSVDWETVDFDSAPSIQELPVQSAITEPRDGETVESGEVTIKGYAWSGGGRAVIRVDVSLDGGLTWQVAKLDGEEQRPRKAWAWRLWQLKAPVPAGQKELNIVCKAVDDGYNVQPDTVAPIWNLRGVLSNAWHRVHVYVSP
UniProt Q5VSL9: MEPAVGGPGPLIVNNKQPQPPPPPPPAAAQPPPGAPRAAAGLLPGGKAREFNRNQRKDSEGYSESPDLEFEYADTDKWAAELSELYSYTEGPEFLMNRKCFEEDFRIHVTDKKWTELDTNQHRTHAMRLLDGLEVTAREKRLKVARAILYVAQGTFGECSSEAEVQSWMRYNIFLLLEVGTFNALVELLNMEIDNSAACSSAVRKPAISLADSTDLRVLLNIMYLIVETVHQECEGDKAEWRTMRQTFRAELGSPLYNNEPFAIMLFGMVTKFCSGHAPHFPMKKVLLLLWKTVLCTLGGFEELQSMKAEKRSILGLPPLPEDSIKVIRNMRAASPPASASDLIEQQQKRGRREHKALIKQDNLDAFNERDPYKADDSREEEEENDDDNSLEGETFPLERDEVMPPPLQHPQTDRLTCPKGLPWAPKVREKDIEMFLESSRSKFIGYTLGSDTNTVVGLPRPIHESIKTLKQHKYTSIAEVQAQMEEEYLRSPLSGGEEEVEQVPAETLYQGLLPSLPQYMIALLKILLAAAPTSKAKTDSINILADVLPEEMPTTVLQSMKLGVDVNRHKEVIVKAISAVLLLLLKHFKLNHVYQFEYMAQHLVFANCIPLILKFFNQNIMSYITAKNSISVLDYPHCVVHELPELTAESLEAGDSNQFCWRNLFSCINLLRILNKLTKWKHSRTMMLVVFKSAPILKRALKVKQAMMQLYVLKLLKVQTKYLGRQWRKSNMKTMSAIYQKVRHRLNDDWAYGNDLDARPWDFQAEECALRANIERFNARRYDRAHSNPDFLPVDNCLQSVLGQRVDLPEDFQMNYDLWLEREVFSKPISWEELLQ
UniProt Q7Z422: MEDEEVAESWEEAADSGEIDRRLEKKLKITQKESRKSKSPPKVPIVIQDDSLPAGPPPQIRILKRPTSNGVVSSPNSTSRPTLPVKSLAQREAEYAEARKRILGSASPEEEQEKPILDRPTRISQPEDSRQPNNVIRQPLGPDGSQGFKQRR

How the values were obtained:
Test in all cases: log2 fold change, soluble protein after heating vs DMSO (PISA); higher = thermal stabilisation; K562 lysate, 10 uM; active = over 0.2 and 3.5 SD of the protein, either way, in both replicates (recomputed)
erlotinib = compound: C#Cc1cccc(Nc2ncnc3cc(OCCOC)c(OCCOC)cc23)c1 [erlotinib]
In short: (§1)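 Thermal stability, expressed as log-two fold change relative to solvent controls, is given from duplicates. Crude K562 extract in PBS pH 7.4 with 1 mM MgCl2, at 1 mg/mL protein, was treated with 10 μM compound for 30 min and heated in aliquots for 3 min across 48°C-58°C. After pooling, adjustment to 0.5% NP-40 at 4°C and centrifugation at 21,000xg for 90 min, supernatant protein was measured by TMTpro 16plex LC-MS/MS with channel sums equalised.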

[1] = compound: C/C(=N\NC(=O)C1=CC(=CC=C1)S(=O)(=O)N2CCOCC2)/C3=C(C=CC(=C3)Cl)O
In short: as §1

[2] = compound: C1=CC(=CC=C1C2=NC3=C(N2)C=C(C=C3)C(=O)N)OC4=CC=C(C=C4)Cl
In short: as §1

[3] = compound: C1=CC2=C(C=CC(=C2)/C=C\3/C(=O)NC(=NCC4=CC=CS4)S3)N=C1
In short: as §1

[4] = compound: C1=CC2=NC=CN=C2C=C1/C=C/3\C(=O)NC(=O)S3
In short: as §1

[5] = compound: C1=CC=C(C=C1)C2=NC(=C(N2)C3=CC=NC=C3)C4=CC(=C(C=C4)Cl)O
In short: as §1

[6] = compound: C1=CC=C2C(=C1)C3=NNC4=CC=CC(=C43)C2=O
In short: as §1

[7] = compound: C1CCN(C1)C(=O)NC2=CC=CC(=C2)NC3=NC=C(C(=N3)NCCC4=CN=CN4)Br
In short: as §1

[8] = compound: C1CN(CCC1(CC2=CC=C(C=C2)Cl)N)C3=NC=NC4=C3C=CN4
In short: as §1

IRAK-1-4 Inhibitor I = compound: C1COCCN1CCN2C3=CC=CC=C3N=C2NC(=O)C4=CC(=CC=C4)[N+](=O)[O-] [IRAK-1-4 Inhibitor I]
In short: as §1

ibrutinib = compound: C=CC(=O)N1CCC[C@@H](n2nc(-c3ccc(Oc4ccccc4)cc3)c3c(N)ncnc32)C1 [ibrutinib]
In short: as §1

[9] = compound: CC(=O)c1cnc2ccc(-c3cc(Cl)c(O)c(Cl)c3)nc2c1N[C@H]1CC[C@H](CN(C)C)CC1
In short: as §1

ralimetinib = compound: CC(C)(C)Cn1c(N)nc2ccc(-c3[nH]c(C(C)(C)C)nc3-c3ccc(F)cc3)nc21 [ralimetinib]
In short: as §1

[10] = compound: CC(C)(O)CC(=O)NCCn1ccc2ncnc(Nc3ccc(Oc4cccc(C(F)(F)F)c4)c(Cl)c3)c21
In short: as §1

[11] = compound: CC(C)C1=C2N=C(C=C(N2N=C1)NCC3=CC=CC=C3)NCCCCCCN
In short: as §1

[12] = compound: CC1=C(C(CC(=O)N1)C2=CC=C(C=C2)C(F)(F)F)C(=O)NC3=C(C=C4C(=C3)C=NN4)F
In short: as §1

[13] = compound: CC1=C(C2=C(C=C1)C(=O)C3=CC=CC=C3N2CCCN)C
In short: as §1

[14] = compound: CC1=C(C=C(C=C1)NC(=O)C2=CC(=CC=C2)C(C)(C)C#N)NC3=CC4=C(C=C3)N=CN(C4=O)C
In short: as §1

[15] = compound: CC1=C(C=C(C=C1)NC(=O)C2=CC(=CC=C2)N(C)C)NC(=O)C3=CC=C(C=C3)O
In short: as §1

[16] = compound: CC1=CC=C(C=C1)SC2=C3C=C(SC3=CN=C2)C(=O)N
In short: as §1

Measured: log2 fold change

TAB1 (UniProt Q15750)
inactive: erlotinib -0.004 | [1] 0.042 | [2] -0.001 | [3] -0.022 | [4] -0.019 | [5] -0.02 | [6] 0.032 | [7] 0.002 | [8] 0.004 | IRAK-1-4 Inhibitor I -0.001 | ibrutinib 0.043 | [9] 0.012 | ralimetinib 0.047 | [10] 0.011 | [11] -0.006 | [12] -0.026 | [13] 0.019 | [14] 0.008 | [15] 0.001 | [16] -0.015

SUPT16H (UniProt Q9Y5B9)
inactive: erlotinib -0.016 | [1] -0.011 | [2] -0.013 | [3] 0.009 | [4] -0.015 | [5] -0.003 | [6] -0.049 | [7] -0.023 | [8] -0.001 | IRAK-1-4 Inhibitor I -0.017 | ibrutinib -0.001 | [9] -0.012 | ralimetinib 0.001 | [10] 0.004 | [11] -0.012 | [12] 0.019 | [13] -0.201 | [14] 0.016 | [15] 0.035 | [16] -0.01

STMN4 isoform 2 (UniProt Q9H169)
inactive: erlotinib -0.077 | [1] 0.003 | [2] -0.094 | [3] -0.041 | [4] 0.013 | [5] -0.058 | [6] 0.087 | [7] 0.029 | [8] -0.065 | IRAK-1-4 Inhibitor I -0.062 | ibrutinib 0.048 | [9] -0.163 | ralimetinib 0.009 | [10] 0.027 | [11] -0.064 | [12] -0.091 | [13] 0.066 | [14] -0.072 | [15] -0.053 | [16] -0.065

SUCLG1 (UniProt P53597)
inactive: erlotinib 0.052 | [1] 0.022 | [2] 0.033 | [3] -0.005 | [4] 0.018 | [5] 0.051 | [6] -0.035 | [7] -0.017 | [8] -0.021 | IRAK-1-4 Inhibitor I 0 | ibrutinib 0.038 | [9] -0.016 | ralimetinib 0.025 | [10] 0.015 | [11] 0.047 | [12] -0.048 | [13] -0.025 | [14] 0.004 | [15] 0.039 | [16] -0.017

SUOX (UniProt P51687)
inactive: erlotinib -0.045 | [1] 0.061 | [2] 0.049 | [3] 0.058 | [4] 0.02 | [5] -0.003 | [6] 0.002 | [7] -0.028 | [8] 0.056 | IRAK-1-4 Inhibitor I -0.014 | ibrutinib -0.013 | [9] 0.004 | ralimetinib -0.033 | [10] -0.02 | [11] 0.033 | [12] 0 | [13] -0.016 | [14] 0.023 | [15] 0.044 | [16] -0.016

STRIP1 (UniProt Q5VSL9)
inactive: erlotinib -0.012 | [1] 0.012 | [2] -0.037 | [3] 0.004 | [4] -0.008 | [5] -0.01 | [6] 0.034 | [7] -0.034 | [8] 0.037 | IRAK-1-4 Inhibitor I -0.016 | ibrutinib -0.013 | [9] 0.011 | ralimetinib 0.035 | [10] -0.022 | [11] -0.038 | [12] 0.021 | [13] -0.028 | [14] 0.007 | [15] 0.002 | [16] -0.014

SUPT5H (UniProt O00267)
inactive: erlotinib 0.002 | [1] 0.025 | [2] 0.018 | [3] 0.015 | [4] -0.005 | [5] -0.004 | [6] -0.012 | [7] -0.012 | [8] 0.014 | IRAK-1-4 Inhibitor I -0.032 | ibrutinib -0.006 | [9] -0.012 | ralimetinib -0.001 | [10] 0.007 | [11] 0.002 | [12] -0.012 | [13] -0.001 | [14] -0.009 | [15] 0.003 | [16] 0.002

SZRD1 (UniProt Q7Z422)
inactive: erlotinib -0.019 | [1] 0.005 | [2] 0.005 | [3] -0.049 | [4] 0.018 | [5] 0.043 | [6] -0.021 | [7] -0.016 | [8] 0.013 | IRAK-1-4 Inhibitor I 0.011 | ibrutinib 0.001 | [9] -0.03 | ralimetinib -0.021 | [10] -0.046 | [11] -0.009 | [12] -0.046 | [13] -0.056 | [14] 0.03 | [15] 0.028 | [16] -0.017
